PubChem BioAssay AID504786 – Drosophila RNAi Screening Center – 2011
Aim: 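Knock-downs reducing HIF reporter induction by the iron chelator DFO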 (primary screen). Cells: Drosophila S2 cells with a stable HIF luciferase reporter. Reagents: long dsRNA against Drosophila genes, about 0.2 µg dsRNA per well of a 384-well plate. Timing: three days of knock-down, then 20 h of DFO before reading. Treatment: desferrioxamine (DFO) at 100 µM, an iron chelator that mimics hypoxia, for 20 h. Measured: 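Firefly luciferase driven by the mouse ldh-a hypoxia-response element, measured after 20 h of 100 µM DFO; z-scores per plate, higher means more signal lost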. Reading the numbers: z-score: higher = stronger loss of HIF reporter signal.
The screen tested about 21,000 reagents; shown is an unselected part of those with a known target gene and a result. 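Primary screen; positive scores mean lost reporter signal, so the sign may be inverted from the usual convention.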 A plus sign joins genes that one reagent is predicted to hit.

gene knocked down	DRSC id	z-score, replicate 1	z-score, replicate 2	z-score, replicate 3	z-score, replicate 4
Obp83a	DRSC12362	0.4	0.5		
ICA69	DRSC11621	-0.4	-0.5		
SrpRalpha	DRSC20251	-0.2	-0.6		
CG3330	DRSC15477	-0.3	-0.2		
CG12842 (retired record)	DRSC06188	-0.2	0		
CG5111	DRSC15717	0.1	1.3		
CG8888	DRSC07294	-0.4	-0.5		
CG8888	DRSC07295	-0.5	-0.7		
CG31778	DRSC00283	-0.2	0.2		
wuc	DRSC06152	-0.2	0		
CG8229 + CG33199	DRSC05134	0.8	1		
Scp1	DRSC20799	0.3	-0.1		
Scp1	DRSC20803	0.9	-0.3		
Scp1	DRSC20806	-0.1	-0.3		
CRAT	DRSC12523	-0.3	-0.2		
CG34202	DRSC05907	0.7	-0.3		
olf186-M	DRSC07657	0	0.3		
CAH2	DRSC10746	-0.4	-0.6		
RhoGAP68F	DRSC10717	-0.2	-0.2		
Gr68a	DRSC10803	-0.3	-0.4		
Sr-CI	DRSC00790	-0.5	0.3		
CG42335	DRSC14597	-0.2	0.1		
CG42335	DRSC15892	-0.1	-0.2		
CG3631	DRSC15503	-0.4	-0.6		
CG12640	DRSC17847	0	-0.2		
Osi10b	DRSC12279	0.1	0.2		
CG42445	DRSC10858	-0.3	-0.3		
Dgat2	DRSC06803	-0.3	-0.1		
CG33263	DRSC10108	-0.2	-0.2		
COX2 (retired record)	DRSC21276	-0.3	-0.2		
PPP4R2r	DRSC18695	-0.3	-0.9	-0.5	-0.7
GPHR	DRSC07075	-0.2	-0.3		
fs(1)M3	DRSC18381	-0.3	-0.7		
Jon25Bii	DRSC03114	-0.5	-0.7		
CG6345	DRSC16024	-0.4	-0.4		
CG5439	DRSC02861	-0.3	0		
spz6	DRSC04533	0.1	0.3		
Pits	DRSC19385	0.5	3.2		
Pits	DRSC19812	-0.3	-0.1	0.7	-0.3
ERp44	DRSC20215	-0.1	0.1		
CG14500	DRSC06471	-0.3	-0.5		
RpS19a	DRSC20281	8.9	5.4		
CG11333	DRSC14301	-0.4	0.1		
CG8087	DRSC16375	-0.3	-0.5		
mib2	DRSC02623	-0.4	-0.4		
Nup62	DRSC06970	1.3	2		
Kaz-m1	DRSC16990	-0.4	0.1		
Jon99Ci	DRSC16860	-0.1	-0.4		
CG15322	DRSC20680	-0.9	-1.3		
Alp8	DRSC04353	-0.2	-0.6		
mRF1	DRSC02880	-0.2	-0.3		
CG6527	DRSC10659	-0.2	-0.1		
Atac3	DRSC08579	-0.2	0.5		
CG5126	DRSC00680	-0.1	-0.5		
CycB3	DRSC16618	-0.2	-0.3		
CG5181	DRSC02825	-0.3	-0.5		
